Measured values published in the supplement of paper PMC4604168 (melanoma cell lines).
The other results are listed elsewhere or left out. Repeats are few or missing, and single values can be far off.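 Cells were imaged in 1,536-well plates, and nuclei stained with an antibody against cleaved PARP were counted against all DNA-stained nuclei to give the apoptosis fraction. Screening doses were chosen to leave most cells alive, and resting and induced cleaved-PARP levels differ strongly between cell lines.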

Tests used:
Assay in all cases: cleaved PARP positive nuclei fraction relative to DMSO control; melanoma cells; higher = more apoptosis
Conditions in all cases: library dose: low library concentration; 72 h
501Mel = test system: 501Mel
A101D = test system: A101D
A2058 = test system: A2058
A375 = test system: A375
C32 = test system: C32
CBRC008 = test system: CBRC008 (line from a melanoma biopsy)
CBRC014 = test system: CBRC014 (line from a melanoma biopsy)
CBRC016 = test system: CBRC016 (line from a melanoma biopsy)
CBRC017 = test system: CBRC017 (line from a melanoma biopsy)

Row | Compound | cleaved PARP positive nuclei fraction (501Mel) [%] | cleaved PARP positive nuclei fraction (A101D) [%] | cleaved PARP positive nuclei fraction (A2058) [%] | cleaved PARP positive nuclei fraction (A375) [%] | cleaved PARP positive nuclei fraction (C32) [%] | cleaved PARP positive nuclei fraction (CBRC008) [%] | cleaved PARP positive nuclei fraction (CBRC014) [%] | cleaved PARP positive nuclei fraction (CBRC016) [%] | cleaved PARP positive nuclei fraction (CBRC017) [%]
1 | N.N.[Cl][Pt][Cl] [cisplatin] + C#Cc1cccc(Nc2ncnc3cc(OCCOC)c(OCCOC)cc23)c1 [erlotinib] (first compound 1.6 µM, partner dose 0.8 µM) | 47.6 | 112 | 65.3 | 130 | 165 | 185 | 129 | 380 | 132
2 | C[C@]12O[C@H](C[C@]1(O)CO)n1c3ccccc3c3c4c(c5c6ccccc6n2c5c31)CNC4=O [Lestaurtinib] + N.N.[Cl][Pt][Cl] [cisplatin] (first compound 0.004 µM, partner dose 1.6 µM) | 74.8 | 149 | 196 | 232 | 141 | 112 | 110 | 155 | 115
3 | C[C@]12O[C@H](C[C@]1(O)CO)n1c3ccccc3c3c4c(c5c6ccccc6n2c5c31)CNC4=O [Lestaurtinib] + CC(C)C[C@H](NC(=O)[C@H](Cc1ccccc1)NC(=O)c1cnccn1)B(O)O [Bortezomib] (first compound 0.004 µM, partner dose 0.001 µM) | 240 | 745 | 57.8 | 72.1 | 68.4 | 162 | 153 | 561 | 255
4 | C[As](C)SC[C@H](NC(=O)CC[C@H](N)C(=O)O)C(=O)NCC(=O)O [Darinaparsin] + C[C@]1(c2nc3c(C(N)=O)cccc3[nH]2)CCCN1 [Veliparib] (first compound 0.4 µM, partner dose 1.4 µM) | 69 | 185 | 146 | 18.9 | 197 | 44.1 | 85.7 | 45.1 | 81.1
5 | N.N.[Cl][Pt][Cl] [cisplatin] + C=C(c1ccc(C(=O)O)cc1)c1cc2c(cc1C)C(C)(C)CCC2(C)C [Bexarotene] (first compound 1.6 µM, partner dose 2 µM) | 103 | 98.4 | 88.7 | 219 | 76.6 | 312 | 182 | 319 | 147
6 | C[C@]12O[C@H](C[C@]1(O)CO)n1c3ccccc3c3c4c(c5c6ccccc6n2c5c31)CNC4=O [Lestaurtinib] + CC(=O)c1c(C)c2cnc(Nc3ccc(N4CCNCC4)cn3)nc2n(C2CCCC2)c1=O [palbociclib] (first compound 0.004 µM, partner dose 0.04 µM) | 105 | 112 | 117 | 163 | 108 | 34.4 | 115 | 116 | 117
7 | C[C@]1(O)C[C@@H](c2nc(-c3ccc4ccc(-c5ccccc5)nc4c3)c3c(N)nccn32)C1 + N.N.[Cl][Pt][Cl] [cisplatin] (first compound 0.4 µM, partner dose 1.6 µM) | 106 | 94.6 | 97.5 | 323 | 81.9 | 118 | 143 | 80.6 | 149
8 | Cn1cc(C2=C(c3cn(C4CCN(Cc5ccccn5)CC4)c4ccccc34)C(=O)NC2=O)c2ccccc21 [Enzastaurin] + CS(=O)(=O)c1ccc(C(=O)Nc2ccc(Cl)c(-c3ccccn3)c2)c(Cl)c1 [vismodegib] (first compound 0.8 µM, partner dose 1 µM) | 76.1 | 214 | 88.7 | 39.7 | 72.6 | 180 | 103 | 68.2 | 101
9 | N.N.[Cl][Pt][Cl] [cisplatin] + C[As](C)SC[C@H](NC(=O)CC[C@H](N)C(=O)O)C(=O)NCC(=O)O [Darinaparsin] (first compound 1.6 µM, partner dose 0.4 µM) | 223 | 89.8 | 132 | 195 | 66.3 | 141 | 134 | 218 | 124
10 | O=C(O)c1ccc2c(c1)nc(Nc1cccc(Cl)c1)c1ccncc12 + C[As](C)SC[C@H](NC(=O)CC[C@H](N)C(=O)O)C(=O)NCC(=O)O [Darinaparsin] (first compound 0.4 µM, partner dose 0.4 µM) | 182 | 127 | 179 | 143 | 85.4 | 78.1 | 350 | 187 | 350
11 | NC1(c2ccc(-c3nc4ccn5c(=O)[nH]nc5c4cc3-c3ccccc3)cc2)CCC1 + C[As](C)SC[C@H](NC(=O)CC[C@H](N)C(=O)O)C(=O)NCC(=O)O [Darinaparsin] (first compound 0.4 µM, partner dose 0.4 µM) | 114 | 236 | 117 | 181 | 87.5 | 115 | 96 | 110 | 108
12 | Cc1ccc(Nc2nccc(N(C)c3ccc4c(C)n(C)nc4c3)n2)cc1S(N)(=O)=O [Pazopanib] + Cn1cc(C2=C(c3cn(C4CCN(Cc5ccccn5)CC4)c4ccccc34)C(=O)NC2=O)c2ccccc21 [Enzastaurin] (first compound 0.4 µM, partner dose 0.8 µM) | 79 | 104 | 51.5 | 40 | 81.1 | 79 | 95.9 | 214 | 113
13 | C[C@]12O[C@H](C[C@]1(O)CO)n1c3ccccc3c3c4c(c5c6ccccc6n2c5c31)CNC4=O [Lestaurtinib] + CN(c1ncccc1CNc1nc(Nc2ccc3c(c2)CC(=O)N3)ncc1C(F)(F)F)S(C)(=O)=O [PF562271] (first compound 0.004 µM, partner dose 0.08 µM) | 92.7 | 46.1 | 153 | 75.1 | 107 | 71.6 | 94.1 | 96.7 | 103
14 | C[C@]12O[C@H](C[C@]1(O)CO)n1c3ccccc3c3c4c(c5c6ccccc6n2c5c31)CNC4=O [Lestaurtinib] + Nc1ncn([C@H]2C[C@H](O)[C@@H](CO)O2)c(=O)n1 [decitabine] (first compound 0.004 µM, partner dose 0.1 µM) | 89.1 | 32.1 | 145 | 70.6 | 82.3 | 36.7 | 104 | 33.4 | 177
15 | Cn1cc(C2=C(c3cn(C4CCN(Cc5ccccn5)CC4)c4ccccc34)C(=O)NC2=O)c2ccccc21 [Enzastaurin] + C#Cc1cccc(Nc2ncnc3cc(OCCOC)c(OCCOC)cc23)c1 [erlotinib] (first compound 0.8 µM, partner dose 0.8 µM) | 28.4 | 141 | 98.5 | 167 | 83.8 | 55.9 | 106 | 54.5 | 115
16 | Cn1cc(C2=C(c3cn(C4CCN(Cc5ccccn5)CC4)c4ccccc34)C(=O)NC2=O)c2ccccc21 [Enzastaurin] + Nc1cccc2c1CN(C1CCC(=O)NC1=O)C2=O [lenalidomide] (first compound 0.8 µM, partner dose 1 µM) | 80.5 | 197 | 67.9 | 241 | 75.8 | 105 | 107 | 67.3 | 218
17 | CC(=O)O[C@@]12CO[C@@H]1C[C@H](O)[C@@]1(C)C(=O)[C@H](O)C3=C(C)[C@@H](OC(=O)[C@H](O)[C@@H](NC(=O)OC(C)(C)C)c4ccccc4)C[C@@](O)([C@@H](OC(=O)c4ccccc4)[C@H]21)C3(C)C [Docetaxel] + N.N.[Cl][Pt][Cl] [cisplatin] (first compound 0.0001 µM, partner dose 1.6 µM) | 182 | 66.1 | 1930 | 1740 | 84.8 | 486 | 158 | 228 | 170
18 | C[C@]12O[C@H](C[C@]1(O)CO)n1c3ccccc3c3c4c(c5c6ccccc6n2c5c31)CNC4=O [Lestaurtinib] + NC1(c2ccc(-c3nc4ccn5c(=O)[nH]nc5c4cc3-c3ccccc3)cc2)CCC1 [MK2206] (first compound 0.004 µM, partner dose 0.4 µM) | 352 | 207 | 74.2 | 142 | 68.5 | 55.1 | 281 | 91.9 | 86.6
19 | Cn1cc(C2=C(c3cn(C4CCN(Cc5ccccn5)CC4)c4ccccc34)C(=O)NC2=O)c2ccccc21 [Enzastaurin] + Clc1ccc(Nc2nnc(Cc3ccncc3)c3ccccc23)cc1 [vatalanib] (first compound 0.8 µM, partner dose 2 µM) | 58.1 | 195 | 100 | 72 | 147 | 178 | 95.4 | 72.9 | 201
20 | Cn1cc(C2=C(c3cn(C4CCN(Cc5ccccn5)CC4)c4ccccc34)C(=O)NC2=O)c2ccccc21 [Enzastaurin] + OCc1c[nH]c2ccccc12 [Indole-3-carbinol] (first compound 0.8 µM, partner dose 0.8 µM) | 96.2 | 42.7 | 82.6 | 165 | 404 | 78.1 | 97 | 98.3 | 119
21 | N.N.[Cl][Pt][Cl] [cisplatin] + C[C@]1(c2nc3c(C(N)=O)cccc3[nH]2)CCCN1 [Veliparib] (first compound 1.6 µM, partner dose 1.4 µM) | 99 | 136 | 162 | 202 | 82.6 | 174 | 117 | 135 | 101
22 | N.N.[Cl][Pt][Cl] [cisplatin] + COCC[n+]1c2c(n(Cc3cnccn3)c1C)C(=O)c1ccccc1C2=O [YM155] (first compound 1.6 µM, partner dose 0.0004 µM) | 67.3 | 92.6 | 78.4 | 53.2 | 75.7 | 270 | 91 | 109 | 102

Some of the entries so far, in CSV form:
Row,Compound,cleaved PARP positive nuclei fraction (501Mel) [%],cleaved PARP positive nuclei fraction (A101D) [%],cleaved PARP positive nuclei fraction (A2058) [%],cleaved PARP positive nuclei fraction (A375) [%],cleaved PARP positive nuclei fraction (C32) [%],cleaved PARP positive nuclei fraction (CBRC008) [%],cleaved PARP positive nuclei fraction (CBRC014) [%],cleaved PARP positive nuclei fraction (CBRC016) [%],cleaved PARP positive nuclei fraction (CBRC017) [%]
1,"N.N.[Cl][Pt][Cl] [cisplatin] + C#Cc1cccc(Nc2ncnc3cc(OCCOC)c(OCCOC)cc23)c1 [erlotinib] (first compound 1.6 µM, partner dose 0.8 µM)",47.6,112,65.3,130,165,185,129,380,132
2,"C[C@]12O[C@H](C[C@]1(O)CO)n1c3ccccc3c3c4c(c5c6ccccc6n2c5c31)CNC4=O [Lestaurtinib] + N.N.[Cl][Pt][Cl] [cisplatin] (first compound 0.004 µM, partner dose 1.6 µM)",74.8,149,196,232,141,112,110,155,115
